Measurements: article doi:10.1101/2020.12.28.424500
These are yes or no findings as the source states them, for the method shown. In cells and extracts the contact can be indirect. Some results given as binding are weak or reduced against the parent protein; the word gives no strength. For some assays here: Sequences can lack the tags named with a protein.

B1: N-terminal fragment of YFP fused with SYP132 (protein, UniProt Q8VZU2 1-304)
chain: MNDLLKGSFELPRGQSSREGDVELGEQQGGDQGLEDFFKKVQVIDKQYDKLDKLLKKLQASHEESKSVTKAPAMKAIKKTMEKDVDEVGSIARFIKGKLEELDRENLANRQKPGCAKGSGVDRSRTATTLSLKKKLKDKMAEFQVLRENIQQEYRDVVDRRVYTVTGERADEDTIDELIETGNSEQIFQKAIQEQGRGQVMDTLAEIQERHDAVRDLEKKLLDLQQIFLDMAVLVDAQGEMLDNIESQVSSAVDHVQSGNTALQRAKSLQKNSRKWMCIAIIILLIVVAVIVVGVLKPWKNKSA
B2: GFP-SYP123 (protein, UniProt Q9ZQZ8 1-305)
chain: MNDLISSSFKRYTDLNHQVQLDDIESQNVSLDSGNLDEFFGYVESVKEDMKAVDEIHKRLQDANEESKTVHDSKAVKKLRARMDSSVTEVLKRVKMIKTKLVALEKSNAAQRKVAGCGPGSSADRTRTSVVSGLGKKLKDMMDDFQRLRTKMATEYKETVERRYFTVTGQKADEETVEKLISSGESERFLQKAIQEQGRGQVMDTLSEIQERHDTVKEIERSLLELHQVFLDMAALVEAQGNMLNDIESNVSKASSFVMRGTDQLHGAKVLQRNNRKWACIATILAIVVVIVILFPILFNTLLRP
B3: GFP-SYP132 (protein, UniProt Q8VZU2 1-304)
chain: MNDLLKGSFELPRGQSSREGDVELGEQQGGDQGLEDFFKKVQVIDKQYDKLDKLLKKLQASHEESKSVTKAPAMKAIKKTMEKDVDEVGSIARFIKGKLEELDRENLANRQKPGCAKGSGVDRSRTATTLSLKKKLKDKMAEFQVLRENIQQEYRDVVDRRVYTVTGERADEDTIDELIETGNSEQIFQKAIQEQGRGQVMDTLAEIQERHDAVRDLEKKLLDLQQIFLDMAVLVDAQGEMLDNIESQVSSAVDHVQSGNTALQRAKSLQKNSRKWMCIAIIILLIVVAVIVVGVLKPWKNKSA

Key:
[1] = biological target: T1, C-terminal fragment of YFP fused with VAMP721 (Arabidopsis thaliana) (UniProt Q9ZTW3); experiment: split reporter
T1 sequence: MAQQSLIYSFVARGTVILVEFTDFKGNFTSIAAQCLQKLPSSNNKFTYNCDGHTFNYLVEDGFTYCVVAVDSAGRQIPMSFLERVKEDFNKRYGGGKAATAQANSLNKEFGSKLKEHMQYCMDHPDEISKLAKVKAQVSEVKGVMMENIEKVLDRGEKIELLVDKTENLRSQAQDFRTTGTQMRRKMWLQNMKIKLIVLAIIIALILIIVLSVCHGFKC

[2] = biological target: C-terminal fragment of YFP fused with VAMP727 (Arabidopsis thaliana) (UniProt Q9M376); experiment: split reporter
[3] = biological target: T2, TagRFP-VAMP727 (Arabidopsis thaliana) (UniProt Q9M376); experiment: co-IP
T2 sequence: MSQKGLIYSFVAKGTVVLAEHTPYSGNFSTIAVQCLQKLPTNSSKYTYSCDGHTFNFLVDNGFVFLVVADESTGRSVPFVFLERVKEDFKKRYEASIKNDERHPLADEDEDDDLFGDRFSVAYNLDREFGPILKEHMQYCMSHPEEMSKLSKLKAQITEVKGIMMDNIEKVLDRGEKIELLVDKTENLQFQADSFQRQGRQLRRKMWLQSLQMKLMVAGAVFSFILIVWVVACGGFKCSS

Molecule | binding [1] | binding [2] | binding [3]
N-terminal fragment of YFP fused with SYP123 (from UniProt Q9ZQZ8 1-305) | binds | binds | –
B1 | binds | – | –
B2 | – | – | binds
B3 | – | – | no binding
